This is one part of the list.
Key:
Test in all cases: glycan array binding signal (z-score within array); higher = stronger binding
Settings in all cases: glycan notation: IUPAC condensed, linker removed
[1] = target: Neu5Ac(a2-3)Gal(b1-3)GlcNAc6S
How it was run: (§1)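 The binding signal is a Z-score computed within each array and averaged over linkers. Arrays of the same protein sequence at different concentrations or buffers were also averaged together. Data originate from 3228 arrays in the Consortium for Functional Glycomics database, kept only where the protein sequence was available.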

[2] = target: Neu5Ac(a2-3)Gal(b1-3)[Fuc(a1-4)]GlcNAc
How it was run: as §1

[3] = target: Neu5Ac(a2-3)Gal(b1-3)[Fuc(a1-4)]GlcNAc(b1-3)Gal(b1-3)[Fuc(a1-4)]GlcNAc
How it was run: as §1

[4] = target: Neu5Ac(a2-3)Gal(b1-3)[Fuc(a1-4)]GlcNAc(b1-3)Gal(b1-4)[Fuc(a1-3)]GlcNAc
How it was run: as §1

[5] = target: Neu5Ac(a2-3)Gal(b1-3)[GlcNAc(b1-6)]GalNAc
How it was run: as §1

[6] = target: Neu5Ac(a2-3)Gal(b1-3)[Neu5Ac(a2-6)]GalNAc
How it was run: as §1

[7] = target: Neu5Ac(a2-3)Gal(b1-3)[Neu5Ac(a2-6)]GlcNAc(b1-3)[Fuc(a1-3)[Gal(b1-4)]GlcNAc(b1-6)]Gal(b1-4)Glc
How it was run: as §1

[8] = target: Neu5Ac(a2-3)Gal(b1-3)]Neu5Ac(a2-3)Gal(b1-4)]GlcNAc
How it was run: as §1

Neu5Ac(a2-3)Gal(b1-4)Glc = target: Neu5Ac(a2-3)Gal(b1-4)Glc
How it was run: as §1

[9] = target: Neu5Ac(a2-3)Gal(b1-4)GlcNAc
How it was run: as §1

[10] = target: Neu5Ac(a2-3)Gal(b1-4)GlcNAc(b1-2)Man
How it was run: as §1

[11] = target: Neu5Ac(a2-3)Gal(b1-4)GlcNAc(b1-2)Man(a1-3)[GlcNAc(b1-4)][Neu5Ac(a2-3)Gal(b1-4)GlcNAc(b1-2)Man(a1-6)]Man(b1-4)GlcNAc(b1-4)GlcNAc
How it was run: as §1

[12] = target: Neu5Ac(a2-3)Gal(b1-4)GlcNAc(b1-2)Man(a1-3)[Neu5Ac(a2-3)Gal(b1-4)GlcNAc(b1-2)Man(a1-6)]Man(b1-4)GlcNAc(b1-4)GlcNAc
How it was run: as §1

[13] = target: Neu5Ac(a2-3)Gal(b1-4)GlcNAc(b1-2)Man(a1-3)[Neu5Ac(a2-3)Gal(b1-4)GlcNAc(b1-2)Man(a1-6)]Man(b1-4)GlcNAc(b1-4)[Fuc(a1-6)]GlcNAc
How it was run: as §1

[14] = target: Neu5Ac(a2-3)Gal(b1-4)GlcNAc(b1-2)Man(a1-3)[Neu5Ac(a2-6)Gal(b1-4)GlcNAc(b1-2)Man(a1-6)]Man(b1-4)GlcNAc(b1-4)GlcNAc
How it was run: as §1

[15] = target: Neu5Ac(a2-3)Gal(b1-4)GlcNAc(b1-2)[Neu5Ac(a2-3)Gal(b1-4)GlcNAc(b1-4)]Man(a1-3)[GlcNAc(b1-4)][Neu5Ac(a2-3)Gal(b1-4)GlcNAc(b1-2)[Neu5Ac(a2-3)Gal(b1-4)GlcNAc(b1-6)]Man(a1-6)]Man(b1-4)GlcNAc(b1-4)GlcNAc
How it was run: as §1

[16] = target: Neu5Ac(a2-3)Gal(b1-4)GlcNAc(b1-2)[Neu5Ac(a2-3)Gal(b1-4)GlcNAc(b1-4)]Man(a1-3)[GlcNAc(b1-4)][Neu5Ac(a2-3)Gal(b1-4)GlcNAc(b1-4)Man(a1-6)]Man(b1-4)GlcNAc(b1-4)GlcNAc
How it was run: as §1

[17] = target: Neu5Ac(a2-3)Gal(b1-4)GlcNAc(b1-2)[Neu5Ac(a2-3)Gal(b1-4)GlcNAc(b1-6)]Man(a1-6)[Neu5Ac(a2-3)Gal(b1-4)GlcNAc(b1-2)Man(a1-3)][GlcNAc(b1-4)]Man(b1-4)GlcNAc(b1-4)GlcNAc
How it was run: as §1

[18] = target: Neu5Ac(a2-3)Gal(b1-4)GlcNAc(b1-3)Gal
How it was run: as §1

[19] = target: Neu5Ac(a2-3)Gal(b1-4)GlcNAc(b1-3)Gal(b1-3)GlcNAc
How it was run: as §1

[20] = target: Neu5Ac(a2-3)Gal(b1-4)GlcNAc(b1-3)Gal(b1-4)GlcNAc
How it was run: as §1

[21] = target: Neu5Ac(a2-3)Gal(b1-4)GlcNAc(b1-3)Gal(b1-4)GlcNAc(b1-2)Man(a1-3)[Neu5Ac(a2-3)Gal(b1-4)GlcNAc(b1-3)Gal(b1-4)GlcNAc(b1-2)Man(a1-6)]Man(b1-4)GlcNAc(b1-4)GlcNAc
How it was run: as §1

B1: Awp3 (Candida glabrata), B4UN32 (protein)
chain: MISFVTLLAILGLLSISWADQTVRSVAGDQRVTDPVIVGDNSILDYYGGSNYDFSNNFEIGRGTLYIGKESYFSSFQSAPTDVPNSFHLLIKNTNNLQNNGQFIIENIKRHANQCSNSSIQVFPINFQNDGEFEIISGGVEGRCCLPTSVIAPQNFLNNGKFYYKVLTDTGSIYSGSCMQNVDIGASTTTTVNNNLWEFTGSINAQINGAVSGAAQINLDGSNMFVNANTFSGQVVNLINGGSFLQTSDPLSNIVVINGLGTSDTGVTSIAVKGKGKSFTYNPSSGIVKLTTVEGKTYAYQIGCGYNTKKFITNNDSGASYESADNFFVLTYSEPYSPQTCQLENSSIFSSNFISTSTSSSSSSSSASSLPSSMSSSLPSSLSSSLSSSLSSSMSSSMSSLFIIPPPYTTTRSSGSSIIDTEIVSFYSTTDSPGHTITGTTTTTLYGPHTHSSVSTPSSSSESSTTSNSSIESSSLPHTSVSSTPESSITPSSNTISSSPTSDFSSVQSSSIMESSSVVASSSVINSSSIVDSSSSSASSLPSSMSSSLSSSMSSSLPSSMSSSLSSSLSSSLSSSMSSSMSSLFIIPPPYTTTRSSGSSIIDTEIVSFYSTTDSPGHTITGTTTTTLYGPHTHSSVSTPSSSSESSTTSNSSIESSSLPHTSVSSTPESSITPSSNTISSSPTSDFSSVQSSSIMESSSVVASSSVINSSSIVDSSSSSASSLPSSMPSSLPSSMSSSLSSSMSSSLSSSLSSSLSSSMSSSMSSLFIIPPPYTTTRSSGSSIIDTEIVSFYSTTDSPGHTITGTTTTTLYGPHTHSSVSTPSSSSESSTTSNSSIESSSLPHTSVSSTPESSITPSSNTISSSPTSDFSSVQSSSIMESSSVVASSSATQSSSVINSSSIVDSSSSSASSLPSSMPSSLPSSLSSSLSSSLSSSMSSSMSSLFIIPPPYTTTRSSGSSIIDTEIVSFYSTTDSPGHTITGTTTTTLYESSIYSSSSSTIQESELSNTSRTTMTSNSSVSISSTSSRSSFSNTKSSTIVISQSASLPDSKTDIILSTSSNIGYSSRSLLSDLGTSISDSDIHHSVLHSTESYSSNESGTNPFTSIASLSNFIPESSSHTSTALGSENSVISSDILTTMSHPVATNSGDKPTTPKRSEQVSTTMTSSGPTPDTSSFDTDGMSAYSRPEFTTNSLEVNKSSTSQLGNNKQTFSNLQLESTRPHSENEVDNNTRLLQSIQQSSTYGTNNVNPLSPTGSISIPLTEDGQGDNNNWNSPATNDLCTQISFNLTATTITVTDRITITDSIHDISSEVITSYIYQTIVDQKTVTQTVDGKSLANKMSSIPKPSSRSLIQPQPPVAIELQEGAASTSRVSLVSLFISIILVLL
glycan array binding signal (z-score) [1]: -0.349 | glycan array binding signal (z-score) [2]: -0.755 | glycan array binding signal (z-score) [3]: -0.552 | glycan array binding signal (z-score) [4]: -0.215 | glycan array binding signal (z-score) [5]: 0.897 | glycan array binding signal (z-score) [6]: -0.258 | glycan array binding signal (z-score) [7]: 0.9 | glycan array binding signal (z-score) [8]: -1.42 | glycan array binding signal (z-score) (Neu5Ac(a2-3)Gal(b1-4)Glc): -0.47 | glycan array binding signal (z-score) [9]: -0.509 | glycan array binding signal (z-score) [10]: -0.323 | glycan array binding signal (z-score) [11]: 1.78 | glycan array binding signal (z-score) [12]: -0.92 | glycan array binding signal (z-score) [13]: 0.013 | glycan array binding signal (z-score) [14]: 1.05 | glycan array binding signal (z-score) [15]: -0.445 | glycan array binding signal (z-score) [16]: 1.88 | glycan array binding signal (z-score) [17]: 2.13 | glycan array binding signal (z-score) [18]: -0.194 | glycan array binding signal (z-score) [19]: -0.606 | glycan array binding signal (z-score) [20]: 0.144 | glycan array binding signal (z-score) [21]: -1.07

Source: the supplement of paper PMC8728848
